These are yes or no findings as the source states them, for the method shown.
Target: DDX43 KH-domain protein KH-89 (human) (UniProt Q9NXZ2)
Experiment: SEC; Sephacryl S-100 high-resolution column calibrated with molecular mass standards; buffer A (25 mM Tris pH 8.0, 0.15 M NaCl, 100 uM Tween 20, 10% glycerol), 0.5 ml/min; both purified

B1: DDX43 KH-domain protein KH-89 (domain or fragment, UniProt Q9NXZ2 54-142)
chain: TSRPPEAVAAGHEELPLCFALKSHFVGAVIGRGGSKIKNIQSTTNTTIQIIQEQPESLVKIFGSKAMQTKAKAVIDNFVKKLEENYNSE
- binding: no binding

Source: PMC7949032, “The KH domain facilitates the substrate specificity and unwinding processivity of DDX43 helicase”
